# From PubChem BioAssay AID504582 (Broad Institute, 2011)
# Screen size: about 340,000 compounds; about 2,300 (0.68%) were called active. Inconclusive results, whose numbers are uncertain, are shown with a selection of clear calls. Rule as the data show it: active = growth rescue above about 28% (passing the limit was not always enough); inconclusive = no clear call, values can overlap the other calls.
# Assay: rescue of yeast from PfHsp40 toxicity, primary screen, S. cerevisiae, ATP luminescence (AID 504582);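 also: yeast W303a lacking pdr1 and pdr3 grown in galactose medium; growth measured after three days at 30 °C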
# Conditions: S. cerevisiae expressing PfHsp40, growth rescue, at 12.5 µM, stronger effect = higher value
row,Structure (SMILES),growth rescue
1,O=C(CN(C(=O)c1csnn1)c1ccc(F)c(Cl)c1)NC1CCCC1,inactive: -0.576%
2,CCOC(=O)C(C)n1cnc2scc(-c3ccc(C)c(C)c3)c2c1=O (stereo not given),inactive: 4.82%
3,COc1cccc(NC(C)C(=O)N2CC(C)OC(C)C2)c1 (stereo not given),inactive: 0.842%
4,Oc1ccc(/C=N/Nc2ccc(C(F)(F)F)cn2)c(O)c1,active: 421%
5,CC(c1ccccc1)(c1ccccc1)c1ccncc1,inconclusive: 58.4%
6,CCOC(=O)c1cc(C#N)c(N2CCN(C(=O)c3cccc(C(F)(F)F)c3)CC2)nc1C(F)(F)F,inconclusive: 31.6%
7,COc1ccc(Cl)cc1-c1nc(SCC(=O)NC(C)(C)C)n[nH]1,inactive: 0.78%
8,CC(=O)Oc1ccc(N2C(=O)C3C4C=CC(CC4)C3C2=O)cc1[N+](=O)[O-] (stereo not given),inconclusive: 70.5%
9,Cc1sc2ncnc(Sc3ccccc3C(=O)Nc3ccccc3Cl)c2c1C,inconclusive: 48.2%
10,COc1ccccc1/C=C/C=N/n1c(C)nnc1C,inconclusive: 30.2%
11,Cc1sc2ncnc(NS(=O)(=O)c3ccc(Cl)cc3)c2c1C,inconclusive: 29%
12,Cc1cc(C)cc(OCC(=O)OCC(=O)Nc2cc(S(=O)(=O)N3CCOCC3)ccc2Cl)c1,inconclusive: 47.9%
13,COc1cccc(/C=N/NC(=O)c2nc(-c3ccccc3)cc(-c3ccccc3)n2)c1O,active: 254%
14,CCC(C)Nc1nc(N)c([N+](=O)[O-])c(Nc2ccccc2OC)n1 (stereo not given),inconclusive: 42.4%
15,C/C(=N\NC(=O)c1ccc(O)cc1)c1ccc(N2CCOCC2)cc1,inactive: -0.961%
16,Cc1cc(OC(=O)c2ccccc2Cl)ccc1N1C(=O)CCC1=O,inconclusive: 31.2%
17,CCc1ccc(NC(=O)Cn2cccc2)cc1,inconclusive: 36.4%
18,Cc1cccc(Cn2c(N3CCCCC3C)nc3c2c(=O)[nH]c(=O)n3C)c1 (stereo not given),inactive: -0.192%
19,CC(C)C(=O)Nc1nnc(SCC(=O)Nc2ccc3c(c2)OCO3)s1,inconclusive: 28.8%
20,Cc1cc(/C=N/n2cnnc2)c(C)n1-c1ccc(OCc2ccc(F)cc2)cc1,active: 103%
21,Cc1cccc(C)c1NC(=O)CSc1nnc(C)n1CC1CCCO1 (stereo not given),inactive: -1.66%
22,COc1ccc2c(c1)-c1c(sn(-c3ccccc3)c1=S)C(C)(C)N2,inactive: -0.325%
23,CCN1Cc2c(/C=C/c3ccccc3)nc3ccc(OC)cc3c2N(c2cccc(Cl)c2)C1,inactive: -1.34%

# Single values from the list:
# Entry of `Cc1cc(C)cc(OCC(=O)OCC(=O)Nc2cc(S(=O)(=O)N3CCOCC3)ccc2Cl)c1` under growth rescue: inconclusive: 47.9%
# Entry of `CCC(C)Nc1nc(N)c([N+](=O)[O-])c(Nc2ccccc2OC)n1` (stereo not given) under growth rescue: inconclusive: 42.4%
# Entry of `COc1ccc2c(c1)-c1c(sn(-c3ccccc3)c1=S)C(C)(C)N2` under growth rescue: inactive: -0.325%

# Additional structures follow:

row,Structure (SMILES),growth rescue
1,CCc1ccc(C2=NN(C(=O)OC)C(O)(C(F)(F)F)C2)cc1 (stereo not given),inactive: 0.535%
2,COc1ccccc1OCCNC(=O)c1ccc(Br)cc1,active: 168%
3,Cc1nc(SCC(N)=O)c(C#N)c(C)c1C,inactive: -0.315%
4,O=C(O)c1cn(-c2ccc(F)cc2)c2cc(Cl)c(F)cc2c1=O,inactive: 1.75%
5,Cc1cccc(CCNC(=O)C2CCN(S(=O)(=O)N3CCOCC3)CC2)c1,inconclusive: 35%
6,O=C(c1nc2nc(-c3cccs3)cc(C(F)(F)F)n2n1)N1CCN(Cc2ccccc2)CC1,inconclusive: 32.4%
7,C=CCOC(=O)c1cc(-c2ccc(/C=C3\C(=O)NC(=O)C(C#N)=C3C)o2)ccc1Cl,inconclusive: 39.1%
8,O=C(N/N=C/c1c[nH]c2ccccc12)c1sc2ccccc2c1Cl,inconclusive: 69.3%
9,COc1ccc(NC(=O)C2=CC(c3ccco3)=NS(=O)(=O)N2C)cc1OC,inactive: -0.762%
10,CC1CCN(C2(O)C(=O)Nc3ccc(Br)cc32)CC1 (stereo not given),inactive: 0.139%
11,CCN(CC)C(=O)c1c[nH]c2ccc(S(=O)(=O)Nc3cc(C)cc(C)c3)cc2c1=O,inconclusive: 27.8%
12,COc1ccc(-[n+]2c(C)cc(/C=C3\Sc4ccccc4N3C)cc2C)cc1,inconclusive: 37.7%
13,COc1cc2c(cc1NC(=O)Nc1ccccc1)oc1ccccc12,inconclusive: 44.9%
14,C#CCOCCOCCOCCNc1nc(N2CCN(C(=O)[C@H](CCCN=C(N)N)n3cc(C(N)[C@@H](C)CC)nn3)CC2)nc(N2CCN(C(=O)[C@H](CCC(=O)O)n3cc([C@@H](N)CO)nn3)CC2)n1 (stereo not given in full),inactive: 0.79%
15,COC(=O)c1ccccc1NC(=O)c1cccc(NC(=O)c2ccc(Br)o2)c1C,inconclusive: 29.4%
16,Nc1ccc2c(c1)C(=O)N(CCCCCC(=O)O)C2,inactive: -0.455%
17,COc1ccc(-c2occ(C(=O)O)c2C(=O)O)cc1,inconclusive: 51%
18,COc1ccc2c(CC(=O)OCC(=O)NC(=O)c3cccn3C)coc2c1,inconclusive: 29.9%
19,N/C(Cc1ccc(Cl)cc1)=N\OC(=O)c1ccccc1,inconclusive: 272%
20,O=C(Cc1ccccc1F)Nc1nc(-c2ccc(F)cc2)cs1,inconclusive: 59.4%
21,CN(C)c1ccnc(Nc2ccc(F)cc2)c1C#N,inconclusive: 75%
22,N#CCSc1nc(-c2ccccc2)cs1,active: 35.5%
